# Measurements: patent US20230416400A1 (published 2023)
# Protein sequences, listed by entry. Tags and fused reporters are not part of them. Lines headed by an entry give the natural chain unless they say otherwise; changes in a name come on top. Chains listed by the source or under a name are the forms on record and can include a tag or linker.
# human BRAF V600E protein (P15056, form named): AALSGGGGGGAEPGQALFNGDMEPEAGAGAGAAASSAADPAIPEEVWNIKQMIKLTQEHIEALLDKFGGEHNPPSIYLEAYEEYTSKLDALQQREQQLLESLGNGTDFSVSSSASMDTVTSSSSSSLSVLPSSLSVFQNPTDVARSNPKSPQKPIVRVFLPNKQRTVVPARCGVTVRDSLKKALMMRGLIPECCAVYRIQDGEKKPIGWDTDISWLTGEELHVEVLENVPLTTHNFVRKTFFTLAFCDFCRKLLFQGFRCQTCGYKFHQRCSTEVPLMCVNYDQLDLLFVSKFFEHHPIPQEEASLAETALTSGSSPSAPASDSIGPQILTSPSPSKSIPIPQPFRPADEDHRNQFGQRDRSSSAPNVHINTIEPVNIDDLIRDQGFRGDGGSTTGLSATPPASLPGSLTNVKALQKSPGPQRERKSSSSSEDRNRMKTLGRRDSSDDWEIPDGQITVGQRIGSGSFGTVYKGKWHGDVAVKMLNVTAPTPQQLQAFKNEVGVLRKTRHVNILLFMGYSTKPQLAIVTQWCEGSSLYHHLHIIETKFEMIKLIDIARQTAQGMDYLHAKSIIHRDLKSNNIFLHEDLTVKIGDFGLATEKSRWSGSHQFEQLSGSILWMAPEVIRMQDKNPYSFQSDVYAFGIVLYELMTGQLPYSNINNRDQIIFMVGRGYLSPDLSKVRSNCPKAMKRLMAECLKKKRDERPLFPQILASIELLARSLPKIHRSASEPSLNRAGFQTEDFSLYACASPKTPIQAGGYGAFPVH
# No constants are given. Whether binding was seen depends on the method and setting. Some entries that bind do so weakly or less than the wild type. No end group written: not given here.
# T1: BRAF V600E peptide (biotinylated synthetic peptide including the amino acids of and surrounding the BRAF V600E mutation) (human)
# T1 sequence (peptide, biotinylated (position not stated)): GLATEKSRWSG
# Assays:
# [1] = biological target: T1, BRAF V600E peptide (biotinylated synthetic peptide including the amino acids of and surrounding the BRAF V600E mutation) (human); assay: BLI (Octet Red96), biotinylated peptide on SAX sensors, antibody 2.78 to 33.3 nM
# [2] = biological target: human BRAF V600E protein (human) (UniProt P15056); assay: IHC, FLEX protocol, non-purified antibody
binding [1],binding [2],Binder
binds,–,"chimeric BRAF V600E antibody (mouse variable domains, rabbit IgG heavy chain and rabbit kappa1 light chain constant domains; heavy chain SEQ ID NO:2 and light … (antibody, V domains shown) VH: QAYLQQSGAELVRPGASVKMSCKASGYTFTSYNMHWIKQTPRQGLEWIGAIYPGNGDTSYNQKFKGKATLTVDRSSNTAYMQLSSLTSEDSAVYFCARDGISPWGQGTLVTVSS VL: DIKMTQSPSSMYASLGERVTITCKASQDINRYLSWFQQKPGKSPKTLIYRANRVLDGVPSRFSGSGSGQDYSLTISSLESEDMGIYYCLHYDEYPYTYGGGTKLEIKG"
binds,binds,"recombinant mouse anti-human BRAF V600E antibody (mouse IgG2a heavy chain, mouse kappa1 light chain) (antibody, V domains shown) VH: QAYLQQSGAELVRPGASVKMSCKASGYTFTSYNMHWIKQTPRQGLEWIGAIYPGNGDTSYNQKFKGKATLTVDRSSNTAYMQLSSLTSEDSAVYFCARDGISPWGQGTLVTVSS VL: DIKMTQSPSSMYASLGERVTITCKASQDINRYLSWFQQKPGKSPKTLIYRANRVLDGVPSRFSGSGSGQDYSLTISSLESEDMGIYYCLHYDEYPYTYGGGTKLEIK"
